In the experiment the test system is L1210 leukemia ip in BDF1 mice, survival T/C. As to the kind of experiment: NCI In Vivo Anticancer Drug Screen. Data for tumor model L1210 Leukemia (intraperitoneal) in B6D2F1 (BDF1) mice. As to conditions: T/C endpoint: mean survival time, higher T/C = longer survival.
Setting [1] is: dose: 25.0 mg/kg/injection, schedule: Q01DX009 (ip), vehicle: Klucel (hydroxypropylcellulose) (HPC).
[2] abbreviates: dose: 50.0 mg/kg/injection, schedule: Q01DX009 (ip), vehicle: Klucel (hydroxypropylcellulose) (HPC).
Where [3] appears, read: dose: 400.0 mg/kg/injection, schedule: Q01DX001 (ip), vehicle: saline.
Setting [4] is: dose: 400.0 mg/kg/injection, schedule: Q01DX001 (ip), vehicle: saline with Tween-80.

Structures are written as SMILES. The list does not hold the whole screen: it is rich in T/C values a quarter to a half above the control, in often repeated tests (any T/C) and in doses without a T/C. Other doses and runs of a compound stand elsewhere. T/C: endpoint of the treated group in % of that of the vehicle group. Some doses have a count of surviving animals in place of a T/C: the source files T/C as zero there, which appears to mark a toxic dose or a test without result, not a measured value. Some survivor counts are full or nearly so, which does not show that the dose was tolerated: survival well below the control is almost never listed, so the zero probably covers shortened survival too. Survivors were counted at the toxicity check, usually on the fifth day, unless a day is given; later deaths do not show. Schedules are NCI's codes, read here as Q, the interval in days (D) or hours (H), X, the number of doses. Some entries hold several experiments; the results are listed from low to high. Some schedule codes hold Z or #, which are not explained here. For survival time, the PubChem record calls one and a half times the control and up active, and a quarter to a half above the control has no call in these data; cut-offs in other NCI protocols can differ. Some T/C values are followed by the survivors on the day toxicity was checked, most often the fifth; without a count, all were alive then.

For the compound `Cc1c(CNc2ccc(Cl)c(C(=O)NC(CC(=O)O)C(=O)O)c2)ccc2nc(N)nc(N)c12` (stereo unspecified), the T/C is, setting by setting: (dose: 6.25 mg/kg/injection, schedule: Q01DX009 (ip), vehicle: Klucel (hydroxypropylcellulose) (HPC)) 138 % of control; under setting [1], 138 [4 of 6 alive], 153, 154 % of control [5 of 6 alive]; under setting [2], 138 % of control [5 of 6 alive]; (dose: 100.0 mg/kg/injection, schedule: Q01DX009 (ip), vehicle: Klucel (hydroxypropylcellulose) (HPC)) 125 % of control; (dose: 178.0 mg/kg/injection, schedule: Q01DX001 (ip), vehicle: saline) 129 % of control; under setting [3], 127 % of control [4 of 6 alive]. The survivor count is, setting by setting: (dose: 12.0 mg/kg/injection, schedule: Q01DX009 (ip), vehicle: Klucel (hydroxypropylcellulose) (HPC)) 2 of 6; under setting [1], 1 of 6; (dose: 200.0 mg/kg/injection, schedule: Q01DX009 (ip), vehicle: Klucel (hydroxypropylcellulose) (HPC)) 0 of 6, 4 of 6, 5 of 6; (dose: 200.0 mg/kg/injection, schedule: Q01DX009 (ip), vehicle: saline) 5 of 6; (dose: 300.0 mg/kg/injection, schedule: Q01DX009 (ip), vehicle: saline) 1 of 6; (dose: 600.0 mg/kg/injection, schedule: Q01DX001 (ip), vehicle: saline) 3 of 6.

As for `CCC[CH2][Sn](=[O])[CH2]CCC`, the survivor count is, setting by setting: (dose: 12.5 mg/kg/injection, schedule: Q01DX001 (ip), vehicle: saline with Tween-80) 0 of 3; (dose: 25.0 mg/kg/injection, schedule: Q01DX001 (ip), vehicle: saline with Tween-80) 1 of 3; (dose: 50.0 mg/kg/injection, schedule: Q01DX001 (ip), vehicle: saline with Tween-80) 1 of 3; (dose: 100.0 mg/kg/injection, schedule: Q01DX001 (ip), vehicle: saline with Tween-80) 0 of 3; (dose: 200.0 mg/kg/injection, schedule: Q01DX001 (ip), vehicle: saline with Tween-80) 0 of 3; under setting [4], 0 of 3.

In the case of `CC1C[N-]CC(C)C1.CC1C[N-]CC(C)C1.CC1C[N-]CC(C)C1.CC1C[N-]CC(C)C1.[Cl][Rh][Cl]` (stereo unspecified), the survivor count is, setting by setting: (dose: 12.5 mg/kg/injection, schedule: Q01DX009 (ip), vehicle: gum acacia) 5 of 6; (dose: 25.0 mg/kg/injection, schedule: Q01DX009 (ip), vehicle: gum acacia) 5 of 6; (dose: 50.0 mg/kg/injection, schedule: Q01DX009 (ip), vehicle: gum acacia) 1 of 6; (dose: 50.0 mg/kg/injection, schedule: Q04DX003 (ip), vehicle: gum acacia) 6 of 6; (dose: 100.0 mg/kg/injection, schedule: Q04DX003 (ip), vehicle: gum acacia) 5 of 6; (dose: 200.0 mg/kg/injection, schedule: Q04DX003 (ip), vehicle: gum acacia) 2 of 6. Moreover, for the setting “dose: 400.0 mg/kg/injection, schedule: Q04DX003 (ip), vehicle: gum acacia”, the survivor count is given as 1 of 6.

For `Cc1cc(CN(C)C)cc(C(C)C)c1O`, the survivor count was 2 of 6 (dose: 50.0 mg/kg/injection, schedule: Q01DX009 (ip), vehicle: saline with Tween-80); 0 of 6 (dose: 100.0 mg/kg/injection, schedule: Q01DX009 (ip), vehicle: saline with Tween-80); 0 of 6 (dose: 200.0 mg/kg/injection, schedule: Q01DX009 (ip), vehicle: saline with Tween-80); 0 of 6 (dose: 400.0 mg/kg/injection, schedule: Q01DX009 (ip), vehicle: saline with Tween-80).

For the compound `Cc1cc(N(C)C)cc(C)c1C(=Nc1ccc(N=C(NO)c2c(C)cc(N(C)C)cc2C)cc1)NO`, under setting [3], the survivor count is 1 of 4.

Regarding `CCCCC#C/C(C)=N\Nc1ccc([N+](=O)[O-])cc1[N+](=O)[O-]`, under “dose: 200.0 mg/kg/injection, schedule: Q04DX002 (ip), vehicle: saline with Tween-80”, the survivor count is listed as 3 of 3.

Turning to `Nc1nc2c(=O)[nH]cnc2n1C1OC(CO)C(O)C1O` (stereo unspecified), the survivor count (dose: 40.0 mg/kg/injection, schedule: Q01DX001 (ip), vehicle: saline) is 2 of 4 and the survivor count (dose: 80.0 mg/kg/injection, schedule: Q01DX001 (ip), vehicle: saline) is 2 of 4.

Regarding `N#CCCNc1ccc(NC(=O)C(F)(F)F)cc1`, the survivor count reads like this: (dose: 200.0 mg/kg/injection, schedule: Q04DX003 (ip), vehicle: saline) 1 of 6; (dose: 400.0 mg/kg/injection, schedule: Q04DX003 (ip), vehicle: saline) 0 of 6.

On to `NC(=S)c1cccc(OCCc2ccccc2)c1`, for which the survivor count under setting [4] is on record as 0 of 6.

As for `N#CC12CC=CCC1CCC2=N` (stereo unspecified), the survivor count under setting [2] is on record as 1 of 6; the survivor count (dose: 75.0 mg/kg/injection, schedule: Q01DX009 (ip), vehicle: Klucel (hydroxypropylcellulose) (HPC)) was 3 of 6; the survivor count (dose: 150.0 mg/kg/injection, schedule: Q01DX009 (ip), vehicle: Klucel (hydroxypropylcellulose) (HPC)) was 1 of 6; the survivor count (dose: 300.0 mg/kg/injection, schedule: Q01DX009 (ip), vehicle: Klucel (hydroxypropylcellulose) (HPC)) was 0 of 6.

`CC1(C)CN1P(=S)(N1CC1(C)C)N1CC1(C)C` (stereo unspecified): the T/C (dose: 44.0 mg/kg/injection, schedule: Q01DX001 (ip), vehicle: carboxymethylcellulose (CMC)) is 131 % of control; the T/C (dose: 66.0 mg/kg/injection, schedule: Q01DX001 (ip), vehicle: carboxymethylcellulose (CMC)) was 141 % of control; the T/C (dose: 66.0 mg/kg/injection, schedule: Q01DX001 (ip), vehicle: other) was 127 % of control; the T/C (dose: 100.0 mg/kg/injection, schedule: Q01DX009 (ip), vehicle: saline) was 125 % of control; the T/C (dose: 150.0 mg/kg/injection, schedule: Q01DX001 (ip), vehicle: carboxymethylcellulose (CMC)) was 149 % of control; the T/C (dose: 400.0 mg/kg/injection, schedule: Q01DX001 (ip), vehicle: carboxymethylcellulose (CMC)) was 132 % of control.

On to `NC(N)=NN=C1CCC(C2CCCCC2)CC1` (stereo unspecified), for which the survivor count by setting is: (dose: 240.0 mg/kg/injection, schedule: Q01DX Z (ip), vehicle: methylcellulose (MC)) 0 of 6; (dose: 240.0 mg/kg/injection, schedule: Q01DX Z (oral), vehicle: methylcellulose (MC)) 6 of 6; (dose: 420.0 mg/kg/injection, schedule: Q01DX Z (ip), vehicle: methylcellulose (MC)) 1 of 6; (dose: 600.0 mg/kg/injection, schedule: Q01DX Z (ip), vehicle: methylcellulose (MC)) 0 of 6.

Take `Clc1ccccc1C[P+](c1ccccc1)(c1ccccc1)c1ccccc1`: the survivor count is 0 of 6 (dose: 100.0 mg/kg/injection, schedule: Q01DX001 (ip), vehicle: saline); 0 of 6 (dose: 200.0 mg/kg/injection, schedule: Q01DX001 (ip), vehicle: saline); 0 of 6 under setting [3].

As to `COc1ccc2c(c1)N(CC(C)C[N+](C)(C)CCCCCCCCCC[N+](C)(C)CC(C)CN1c3ccccc3Sc3ccc(OC)cc31)c1ccccc1S2` (stereo unspecified), the survivor count runs as follows: (dose: 100.0 mg/kg/injection, schedule: Q01DX009 (ip), vehicle: saline + alcohol) 0 of 6; (dose: 200.0 mg/kg/injection, schedule: Q01DX009 (ip), vehicle: saline + alcohol) 0 of 6; (dose: 400.0 mg/kg/injection, schedule: Q01DX009 (ip), vehicle: saline + alcohol) 0 of 6.

For `CC1(C)CC(N=Cc2ccccc2O)CC(C)(C)N1O.CC1(C)CC(N=Cc2ccccc2O)CC(C)(C)N1O.[Ni]`, the survivor count is listed as 0 of 4 (dose: 200.0 mg/kg/injection, schedule: Q04DX003 (ip), vehicle: saline with Tween-80) and 1 of 4 (dose: 400.0 mg/kg/injection, schedule: Q04DX003 (ip), vehicle: saline with Tween-80).

`C=CS(=O)(=O)Cc1ccc(Cl)cc1`: the survivor count is recorded as 0 of 3 (dose: 100.0 mg/kg/injection, schedule: Q04DX002 (ip), vehicle: Klucel (hydroxypropylcellulose) (HPC)); 0 of 3 (dose: 200.0 mg/kg/injection, schedule: Q04DX002 (ip), vehicle: Klucel (hydroxypropylcellulose) (HPC)); 0 of 3 (dose: 400.0 mg/kg/injection, schedule: Q04DX002 (ip), vehicle: Klucel (hydroxypropylcellulose) (HPC)).

The record behind these values is PubChem BioAssay AID248 (DTP/NCI, 2004).
